# According to PubChem BioAssay AID1671190 (National Center for Advancing Translational Sciences (NCATS), 2021):
# By UniProt entry, the sequences of proteins in these tests, tags left out. Where a name states a change or a piece, a line headed by the entry shows the natural chain unless it says otherwise.
# UniProt P18054: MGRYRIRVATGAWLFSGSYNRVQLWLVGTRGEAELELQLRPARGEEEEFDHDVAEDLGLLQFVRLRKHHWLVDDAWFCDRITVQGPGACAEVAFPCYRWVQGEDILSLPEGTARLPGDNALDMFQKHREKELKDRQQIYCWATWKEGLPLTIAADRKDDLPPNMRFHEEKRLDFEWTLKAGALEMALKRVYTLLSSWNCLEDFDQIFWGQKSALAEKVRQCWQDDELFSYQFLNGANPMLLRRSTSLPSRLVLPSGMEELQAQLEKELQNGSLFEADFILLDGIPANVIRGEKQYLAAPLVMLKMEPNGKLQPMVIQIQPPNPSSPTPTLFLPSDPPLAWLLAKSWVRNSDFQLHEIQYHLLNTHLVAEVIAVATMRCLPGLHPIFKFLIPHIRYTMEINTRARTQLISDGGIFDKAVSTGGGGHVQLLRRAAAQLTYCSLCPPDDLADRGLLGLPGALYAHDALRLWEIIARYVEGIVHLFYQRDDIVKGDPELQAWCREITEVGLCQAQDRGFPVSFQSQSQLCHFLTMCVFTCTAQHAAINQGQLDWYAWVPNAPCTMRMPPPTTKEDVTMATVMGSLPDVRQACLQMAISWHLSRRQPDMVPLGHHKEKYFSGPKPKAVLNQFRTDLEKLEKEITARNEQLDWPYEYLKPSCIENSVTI
# Values joined by “and” are separate entries in the source; they are usually repeats but may differ in a detail not shown here. Identical values can stand only once. The whole screen tested about 580,000 compounds, of which about 6,100 (1.1%) were called active. The inconclusive results got no clear call from the source; some entries with a clear call stand among them for comparison. The call rests on the fitted dose curve; in most records, active means well fitted inhibition curve with a large enough effect; inconclusive means small, poorly fitted or top-dose-only effect, or another doubt; inactive means no such curve, though single readings can be large or run the other way. A potency beside an inconclusive call is a rough fit, not a confirmed value.
# Molecular target: Polyunsaturated fatty acid lipoxygenase ALOX12 (Homo sapiens) (UniProt P18054)
# Test: Primary qHTS assay for inhibitors of human arachidonate 12S-lipoxygenase (ALOX12): Round 2
# Conditions: purified 12hLO, xylenol orange hydroperoxide absorbance; activity change, negative = inhibition: at 108 µM (top of the series) unless noted
# How it was run: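 Hydroperoxide product was detected by ferrous iron/xylenol orange as the 573 to 405 nm absorbance ratio. Arachidonic acid at 40 uM (final) was turned over for 30 min at room temperature by 150 nM human 12hLO, pH 7.0 Hepes buffer, after 15 min compound preincubation.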
# On the % scale 0 is the no-effect control and ±100 the full control effect; potency means the concentration at half of the fitted maximal effect.
Compound,Potency,"activity change, negative = inhibition"
COc1ccc2oc(=O)c(-c3csc(Nc4ccc(Cl)cc4)n3)cc2c1,"inconclusive: 6.31 µM [inhibitor, full curve, poor fit]",
COc1ccc(Br)cc1CN1CCN(C(=O)c2ccco2)CC1,active: 0.501 µM,
CC(=O)c1c(C)[nH]c(C(=O)COC(=O)c2c(C)noc2C)c1C,"inconclusive: 79.4 µM [inhibitor, partial curve, poor fit]",
COc1ccc(C(=O)c2c(N)c(-c3nc(-c4ccccc4)cs3)c3ccccn23)cc1,"inconclusive: 141 µM [inhibitor, partial curve, poor fit]",
O=C(CCS(=O)(=O)c1ccccc1)Nc1ccc(-c2nc3ccccc3s2)cc1,inactive,
Cc1nc(-c2ccccc2)sc1-c1nc(-c2ccncc2)ncc1S(=O)(=O)c1ccccc1,inactive,
CSc1cccc(NC(=O)CC(c2ccc(F)cc2)N2Cc3ccccc3C2=O)c1 (configuration not stated),,inconclusive: -40.6% [inhibitor]
COc1ccc2nc(NNC(=O)C3COc4ccccc4O3)sc2c1 (configuration not stated),inactive,
N#Cc1ccc(OCC(=O)OCC(=O)c2ccccc2)cc1,inactive,
COc1cc(N)c(Cl)cc1C(=O)OCC(=O)Nc1cccnc1Cl,inactive,
CN(C)S(=O)(=O)c1cccc(NC(=S)Nc2cccc3cnccc23)c1,"inconclusive: 17.8 µM [inhibitor, partial curve, poor fit]",
Cc1cccc2c1NC(=O)C21CC(=O)Nc2c1sc(C(=O)O)c2-c1ccccc1 (configuration not stated),inactive,
O=C(N/N=C/C=C/c1ccco1)c1cccc([N+](=O)[O-])c1,inactive,
COC(=O)Cc1ccc(NC(=S)NC2CC2)cc1,"inconclusive: 70.8 µM [inhibitor, single point]",
Cc1cccc(N2CCN(C(=O)CCCn3ncn4c(cc5occc54)c3=O)CC2)c1C,inactive,
N#C/C(=C(/O)COc1ccc(Br)cc1)c1nnc2n1CCCCC2,inactive,
COC(=O)[C@@]1(Cc2ccc(F)cc2)[C@H]2c3cc(C(=O)N4CCCC4)n(C[C@H](O)CO)c3C[C@H]2CN1C(=O)c1ccccc1,"inconclusive: 1.78 µM [inhibitor, partial curve, poor fit]",
O=C(O)CNS(=O)(=O)c1cc(C(=O)O)ccc1Cl,"inconclusive: 3.16 µM [inhibitor, full curve, poor fit]",
c1ccc2c(c1)CCN2CCN1CCc2ccccc21,"inconclusive: 50.1 µM [inhibitor, single point]",
CCC(Oc1ccccc1)C(=O)Nc1ccccn1 (configuration not stated),"inconclusive: 2 µM [inhibitor, partial curve, poor fit]",
CCOc1cc(CNCCSc2nnnn2C)cc(Cl)c1OCc1ccc(Cl)cc1,"inconclusive: 50.1 µM [inhibitor, partial curve, poor fit]",
Cc1ccc(C(=O)COC(=O)c2cnccn2)cc1[N+](=O)[O-],inactive,
O=C1OCC2=C1C(c1ccccc1)NC(=O)N2Cc1nc(C2CC2)no1 (configuration not stated),inactive,

Compound,Potency,"activity change, negative = inhibition"
O=C(O)c1ccc(Cn2cnc3c(=S)nc[nH]c32)cc1,"inconclusive: 56.2 µM [inhibitor, partial curve, poor fit]",
COc1ccccc1N1CCN(c2nc3ccccc3nc2C(C#N)C(=O)OC(C)C)CC1 (configuration not stated),"inconclusive: 79.4 µM [inhibitor, partial curve, poor fit] and inconclusive: 15.8 µM [inhibitor, partial curve, poor fit]",
CCCc1sc(C(=O)N2CCCCC2C)cc1Br (configuration not stated),"inconclusive: 56.2 µM [inhibitor, partial curve, poor fit]",
Cc1ccc(C2(c3noc(CN4C[C@@H](C)O[C@@H](C)C4)n3)CCCC2)cc1,inactive,
CCOc1ccc(-n2c(-c3ccco3)n[nH]c2=S)cc1,"inconclusive: 44.7 µM [inhibitor, partial curve, poor fit]",
COC(=O)C(NC(=O)c1ccccc1)=C(C)C,inactive,
O=C(NCCNC1CCC(c2ccccc2)CC1)c1cccs1 (configuration not stated),"inconclusive: 15.8 µM [inhibitor, full curve]",
O=C(CNCc1cccc(Cl)c1)N1CCc2ccccc2C1,"inconclusive: 3.16 µM [inhibitor, full curve, poor fit]",
O=C(COC(=O)c1ccc(S(=O)(=O)NCc2ccco2)cc1)Nc1ccc(Cl)cn1,"inconclusive: 50.1 µM [inhibitor, partial curve, poor fit]",
CCOc1ccc(Cn2c(=O)c3sccc3n(CC(=O)NCc3ccccc3Cl)c2=O)cc1,"inconclusive: 39.8 µM [inhibitor, partial curve, poor fit]",
O=C(NC12CC3CC(CC(C3)C1)C2)c1cccc(I)c1,"inconclusive: 100 µM [inhibitor, single point]",
CC(=O)Nc1ccc(-c2ccnc3c2CC(C(=O)Nc2ccccc2)O3)cc1 (configuration not stated),inactive,
CC(C)C(=O)N1CCN(c2ccccc2NC(=S)NC(=O)/C=C/c2ccco2)CC1,"inconclusive: 50.1 µM [inhibitor, partial curve, poor fit]",
Cc1nc2ccccn2c1C(=O)/C=C/c1cccc([N+](=O)[O-])c1,inactive,
O=c1[nH]c(Sc2ccc([N+](=O)[O-])cc2[N+](=O)[O-])nc2ccccc12,"inconclusive: 39.8 µM [inhibitor, partial curve, poor fit]",
COc1ccc(Br)cc1C1CC(=O)N2CN(Cc3ccccc3)CSC2=C1C#N (configuration not stated),"inconclusive: 35.5 µM [inhibitor, partial curve, poor fit]",
Cc1ccc(NC(=O)CNc2cc(S(=O)(=O)N3CCOCC3)ccc2N2CCOCC2)cc1S(=O)(=O)N(C)C,"inconclusive: 79.4 µM [inhibitor, partial curve, poor fit]",
C=CCN(C)C(=O)[C@@H](C)C1CC[C@@]2(C)Cc3sc(CSc4ccccc4)nc3[C@@H](C)[C@@H]2[C@H]1O (some centres not stated),"inconclusive: 50.1 µM [inhibitor, partial curve, poor fit]",
O=C(c1ccccc1)c1c[nH]c(C(=O)NNc2ccccc2)c1,"inconclusive: 35.5 µM [inhibitor, partial curve, poor fit]",
Oc1ccc(C[C@@H](CN2CCCC2CN2C(=S)NC[C@@H]2Cc2ccccc2)N2C[C@H](Cc3ccccc3)N(CC3CCCCC3)C2=S)cc1 (some centres not stated),"inconclusive: 44.7 µM [inhibitor, partial curve, poor fit]",
CCCn1c(=O)c(-c2nc3ccccc3[nH]2)c(O)c2ccccc21,inactive,
O=C(Cn1ccc(=O)[nH]c1=O)N1CCN(Cc2ccccc2)CC(O)C1 (configuration not stated),inactive,
CCC(=O)N1CCN=C1SCc1cccc(C(F)(F)F)c1,inactive,

Compound,Potency,"activity change, negative = inhibition"
O=C(O)C1CC=CCC1C(=O)Nc1cccc(F)c1 (configuration not stated),inactive,
COc1ccc(CCNC(=O)c2ccc(-c3ccc([N+](=O)[O-])cc3Cl)o2)cc1OC,inactive,
COCCCNC(=O)c1sc2nc(C)c(C(=O)Nc3ccc(C)cc3C)c(-c3ccc(Br)cc3)c2c1N,"inconclusive: 126 µM [inhibitor, partial curve, poor fit]",
CCOC(=O)c1cc(S(=O)(=O)N(C)CC(=O)N2CCN(c3ccc(Cl)cc3)CC2)cn1C,inactive,
O=c1cc(-c2ccc(Cl)cc2)oc2cc(O)ccc12,"inconclusive: 50.1 µM [inhibitor, partial curve, poor fit]",
COc1ccc(CN2CCC3(CC2)COCCN3C(=O)OCc2ccccc2)cc1O,"inconclusive: 39.8 µM [inhibitor, partial curve]",
CCN(CC)C(=S)SC(C(N)=O)c1ccccc1 (configuration not stated),"inconclusive: 141 µM [inhibitor, partial curve, poor fit]",
CN(C)S(=O)(=O)N(CC(=O)NCc1ccccc1)c1ccccc1,"inconclusive: 63.1 µM [inhibitor, partial curve, poor fit]",
COc1cccc(Cn2c(=O)c(C)nc3cnc(Oc4cccc(Cl)c4)nc32)c1,"inconclusive: 28.2 µM [inhibitor, single point]",
COc1cc([C@@H]2c3cc4c(cc3[C@@H](O)[C@H]3COC(=O)[C@H]23)OCO4)cc(OC)c1O[Si](C)(C)C(C)(C)C,inactive,
N#C/C(=C\c1ccc(-c2ccc(C#N)cc2)o1)c1nc2ccccc2[nH]1,"inconclusive: 70.8 µM [inhibitor, partial curve, poor fit]",
O=C(O)CC(NCc1ccco1)C(=O)OCCc1ccccc1 (configuration not stated),"inconclusive: 2.82 µM [inhibitor, partial curve, poor fit]",
CC(C)Cn1c(C(C)C)nc([N+](=O)[O-])c1Sc1ccc(Cl)cn1,"inconclusive: 50.1 µM [inhibitor, single point]",
Cc1cc(C(=O)N2CCN(c3ncccn3)CC2)cs1,inactive,
Cc1oc(-c2ccc(Cl)cc2)nc1CN1CCCC(C(=O)NCCCN2CCOCC2)C1 (configuration not stated),"inconclusive: 126 µM [inhibitor, partial curve, poor fit]",
COC1CN(c2ccc(C)cc2)C12CCN(C(=O)COc1ccc(F)cc1)CC2 (configuration not stated),inactive,
COC1=C(Nc2ccccc2OC)C(=O)c2ccccc2C1=O,inactive,
COc1ccc(OC)c(CNCc2cccn2-c2nnc(N3CCOCC3)s2)c1,inactive,
CC(=O)C1=C(O)C(=O)N(CCc2c[nH]c3ccccc23)C1c1cccc(O)c1 (configuration not stated),"inconclusive: 20 µM [inhibitor, partial curve, poor fit]",
O=C(c1ccc(-n2cccc2)cc1)N1CCN(S(=O)(=O)c2cc(F)ccc2F)CC1,inactive,
Cc1ccc(CNS(=O)(=O)c2cc3c(cc2C)N(C)CCO3)cc1,"inconclusive: 1.78 µM [inhibitor, full curve, poor fit]",
